Assay results reported in paper PMC11257983 (2024).
Substitutions are numbered along the chain they refer to. Results are given in words; binding and its absence hold for the method and conditions named. In cells and extracts the contact can be indirect. Some entries that bind do so weakly or less than the wild type. Where a sequence is shown, tags or fusion partners need not be part of it.

Sequences of proteins named here, by UniProt entry; tags and fusion partners are left off.
UniProt Q24324: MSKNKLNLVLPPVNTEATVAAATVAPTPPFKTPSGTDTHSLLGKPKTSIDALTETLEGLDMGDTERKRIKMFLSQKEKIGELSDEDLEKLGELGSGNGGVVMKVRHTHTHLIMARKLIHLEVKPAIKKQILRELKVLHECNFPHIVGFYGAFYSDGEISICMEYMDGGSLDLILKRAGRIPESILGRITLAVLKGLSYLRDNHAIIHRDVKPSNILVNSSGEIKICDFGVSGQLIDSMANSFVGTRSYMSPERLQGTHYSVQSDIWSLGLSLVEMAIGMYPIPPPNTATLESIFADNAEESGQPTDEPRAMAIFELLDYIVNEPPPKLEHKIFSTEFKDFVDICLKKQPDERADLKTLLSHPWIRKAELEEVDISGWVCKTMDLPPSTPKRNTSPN

Tests used:
[1] = target: T1, Flag-CNK^2–549 Q200A (Drosophila) (UniProt Q7KNQ9); experiment: pull-down; GST-HYP as bait, CNK, KSR and MEK variants co-expressed in S2 cells (Fig. 2c,d; Extended Data Fig. 7e); total lysates, overnight at 4 °C; immunoblot
T1 sequence: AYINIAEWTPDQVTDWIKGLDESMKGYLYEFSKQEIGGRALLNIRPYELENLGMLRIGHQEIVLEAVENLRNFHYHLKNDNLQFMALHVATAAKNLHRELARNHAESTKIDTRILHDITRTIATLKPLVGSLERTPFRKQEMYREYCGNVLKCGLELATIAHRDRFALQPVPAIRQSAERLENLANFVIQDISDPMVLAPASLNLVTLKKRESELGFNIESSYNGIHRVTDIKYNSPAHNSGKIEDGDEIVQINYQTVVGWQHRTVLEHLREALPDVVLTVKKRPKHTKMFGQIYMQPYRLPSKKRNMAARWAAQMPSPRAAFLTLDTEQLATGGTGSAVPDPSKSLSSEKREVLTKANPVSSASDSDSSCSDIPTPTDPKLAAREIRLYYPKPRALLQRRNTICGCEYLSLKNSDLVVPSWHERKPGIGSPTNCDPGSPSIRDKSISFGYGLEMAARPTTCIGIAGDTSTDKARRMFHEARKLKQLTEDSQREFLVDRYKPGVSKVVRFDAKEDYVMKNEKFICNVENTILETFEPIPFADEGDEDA

[2] = target: T2, Flag-CNK^2–549 (Drosophila) (UniProt Q7KNQ9); experiment: as above
T2 sequence: T1 sequence with A199Q

[3] = target: T3, GST-CNK^2–384 (Drosophila) (UniProt Q7KNQ9); experiment: pull-down; GST-CNK fragments as bait; S2 cells co-transfected with Pyo-HYP, V5-KSR and Myc-MEK alone, in pairs or all three; total lysates in Triton lysis buffer (50 mM Tris pH 7.5, 150 mM NaCl, 0.2% Triton X-100), overnight at 4 °C; immunoblot
T3 sequence: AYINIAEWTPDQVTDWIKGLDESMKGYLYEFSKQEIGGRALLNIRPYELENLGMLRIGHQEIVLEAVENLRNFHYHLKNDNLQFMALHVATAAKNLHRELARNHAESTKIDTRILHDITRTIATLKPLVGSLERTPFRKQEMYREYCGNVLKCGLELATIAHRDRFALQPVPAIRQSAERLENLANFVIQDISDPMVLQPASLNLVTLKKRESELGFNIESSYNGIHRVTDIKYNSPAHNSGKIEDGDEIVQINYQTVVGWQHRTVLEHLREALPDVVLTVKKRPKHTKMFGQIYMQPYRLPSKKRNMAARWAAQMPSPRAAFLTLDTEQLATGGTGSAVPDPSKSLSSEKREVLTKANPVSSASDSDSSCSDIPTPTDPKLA

[4] = target: T4, GST-CNK^2–549 (Drosophila) (UniProt Q7KNQ9); experiment: as above
T4 sequence: T1 sequence with A199Q

binding [1]: binds
binding [2]: binds
binding [3]: binds
binding [4]: binds
Substance: Myc-MEK (from UniProt Q24324 1-396)
